The values below are quoted from earlier work in PMC8604667 (International Journal of Pharmaceutics: X, 2021).

For this data set the following is noted: ref Saetern et al., 2004.

On to `CC[C@@]1(O)C(=O)OCc2c1cc1n(c2=O)Cc2cc3ccccc3nc2-1` [camptothecin, Camptothecin], for which the aqueous solubility result is given as “approximately 4 μg/mL”.
